The test is described as follows: qHTS Assay to Find Inhibitors of Chronic Active B-Cell Receptor Signaling. The settings on record: ABC-DLBCL IkBa-CBG/CBR reporter, luminescence ratio (green luciferase fused to IkBa over red control in TMD8 lymphoma cells), 4 h. In short, it runs like this:
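Doxycycline induced both beetle luciferases in TMD8 lymphoma cells; IKK-driven degradation limits the IkappaBalpha-fused green signal, while red luminescence normalises for cell number and nonspecific effects. Compounds tested up to 46 uM, 4 hrs.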

Setting [1] is: measured here: CBR red luminescence, cell number.

This is one part of the list. Shown are side measurements of this screen, not its main read-out; they come without a call. The list favours compounds with an active or inconclusive main result. Potencies come from curve fits of mixed quality, noted in brackets.

Our source for the AC50 values is PubChem BioAssay AID493014 (National Center for Advancing Translational Sciences (NCATS), 2011).

As for `CCC(C)N1CCC2(CC1)N=c1c(c3c4c5c(C)c(O)c3c(O)c1=NC(=O)C(C)=CC=C[C@H](C)[C@H](O)[C@@H](C)[C@@H](O)[C@@H](C)[C@H](OC(C)=O)[C@H](C)[C@@H](OC)C=CO[C@@](C)(O5)C4=O)N2` (stereo partly specified), the AC50 under setting [1] is 6.51 µM [rising, partial curve, poor fit].
For the molecule `CC1=C(C(=O)OCc2ccccc2)C(c2ccc([N+](=O)[O-])cc2)NC(=O)N1C` (stereo unspecified), the AC50 under setting [1] is 35.5 µM [falling, single point].
On to `COc1ccc(N2C(=O)C(CC(=O)Nc3ccc(F)cc3)N(CCc3ccc(OC)c(OC)c3)C2=O)cc1` (stereo unspecified), for which the AC50 under setting [1] was 3.55 µM [rising, partial curve, poor fit].
For `CCc1noc(C)c1C(=O)Nc1nc2c(C)cccc2s1`, the AC50 under setting [1] is 2.91 µM [falling, partial curve] and the AC50 (measured here: IkBa-CBG green luminescence) was 20.6 µM [rising, partial curve, poor fit].
For `Cn1c2ccccc2c2c(C(=O)NCC3CCCO3)cn(C3CCCC3)c(=O)c21` (stereo unspecified), the AC50 under setting [1] is 0.651 µM [falling, full curve, poor fit].
On the same count and under the same terms, the value for `Cc1ccc(NS(=O)(=O)c2ccc(N3C(=O)CCC3=O)cc2)cc1` was 2.06 µM [rising, partial curve, poor fit]; that for `COc1ccc(N(CC(=O)NCc2ccccc2)C(=O)CCC(=O)Nc2cc(C)ccn2)c(OC)c1` was 35.5 µM [falling, single point]; that for `CCn1cc(Cl)c(C(=O)N2N=C3/C(=C/c4cccs4)CCCC3C2c2cccs2)n1` (stereo unspecified) was 7.31 µM [falling, partial curve].
As for `CN(c1ccccc1)S(=O)(=O)c1cccc(NC(=O)COc2ccccc2)c1`, the AC50 under setting [1] is 29.1 µM [falling, single point].
As for `CCOC(=O)C1=C(N)n2c(s/c(=C\c3ccco3)c2=O)=C(C(=O)OCC)C1c1ccco1` (stereo unspecified), the AC50 under setting [1] was 12.6 µM [rising, single point].
With `CCCCc1ccc(N=N/C(C(=O)Nc2ccc(NC(C)=O)cc2OC)=C(/C)O)cc1`, the AC50 under setting [1] is 6.31 µM [falling, single point].
For the molecule `COc1ccc(/C=C(\C#N)C(=O)c2c(C)[nH]c3ccccc23)cc1OC`, the AC50 under setting [1] is 20.6 µM [falling, single point].
Same read-out and setting: for `COc1ccc(NC(=O)CCCN2C(=O)CN(C)C2=O)c(OC)c1` the value was 29.1 µM [rising, partial curve, poor fit].
As for `CCOC(=O)/C=C/C(=O)Nc1ccc(S(=O)(=O)N2CCc3ccccc32)cc1`, the AC50 under setting [1] was 10 µM [falling, single point].
For the molecule `O=C(/C=C/c1ccc(OC(F)F)cc1)OCC(=O)N1CCN(C(=O)c2ccco2)CC1`, under setting [1], the AC50 was 29.1 µM [rising, single point].

What is called AC50 is the concentration at which the activity in the assay is half-maximal.
